From PubChem BioAssay AID1347075 (National Center for Advancing Translational Sciences (NCATS), 2019)
Hit rate of the full screen: of about 400,000 compounds, about 5,500 (1.4%) were called active. This list was built around the results that the source calls inconclusive (neither active nor inactive); the mix of calls is not that of the screen. Calls come from the whole dose curve; as a rule, active = well fitted cell-killing curve with a large enough effect; inconclusive = small, poorly fitted or top-dose-only effect, or effect the other way; inactive = flat fitted curve, though single readings scatter. A potency beside an inconclusive call is a rough fit, not a confirmed value.

Experiment: qHTS assay for MDR1-selective chemotherapeutics: Primary screen using the parental adenocarcinoma cell KB-3-1; note: nearly all actives have a fitted effect of over 60% in size
Conditions: KB-3-1 viability, CellTiter-Glo ATP luminescence, 72 h; activity change, negative = cytotoxic: at 46.1 µM (top of the series)
Method in brief: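 KB-3-1 cells, DMEM (no phenol red) + 10% FBS; compound by pin transfer, 72 h, 37 °C. Readout: CellTiter-Glo luminescence after 10 min. Data normalized, curve-fitted.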
% is set by controls: 0 for no effect and ±100 for the full control effect; potency is the fitted concentration of half-maximal effect.

Question: Which Potency does the source give for `CC(O)CN1C(=O)C(CC(=O)Nc2ccc(Cl)cc2)SC1=Nc1ccccc1` (centres undefined) here?
Answer: inconclusive: 25.9 µM [cytotoxic, partial curve, poor fit]

Question: With `CCOc1ccc(NS(=O)(=O)c2cc(C(=O)N3CCN(C(C)=O)CC3)ccc2Cl)cc1` as the compound, how does the Potency read?
Answer: inconclusive: 14.6 µM [rising, partial curve, poor fit]

Question: Which Potency does the source give for `COc1cc(Cl)c(NS(=O)(=O)c2ccc(-c3cnc(C4CC4)o3)cc2)c(OC)c1` here?
Answer: active: 1.64 µM

Question: With `CC(=O)c1c(O)c(C)c(O)c2c1OC1=Cc3c(c(C)nn3C)C(=O)C12C` (centres undefined) as the compound, how does the Potency read?
Answer: inconclusive: 23.1 µM [cytotoxic, partial curve, poor fit]

Question: With `Cc1ccc(C)c(N2CCN(C(=O)c3cccn4c(=O)c5sccc5nc34)CC2)c1` as the compound, how does the Potency read?
Answer: inconclusive: 11.6 µM [cytotoxic, partial curve, poor fit]

Question: With `CCC(=O)NNC(=S)NC(=O)c1ccc(C)cc1` as the compound, how does the Potency read?
Answer: inconclusive: 2.59 µM [cytotoxic, full curve]

Question: For `COc1ccc(-c2nc3c4ccccc4n(CC(=O)N4CCN(c5ccccc5OC)CC4)c(=O)n3n2)cc1`, which “activity change, negative = cytotoxic” value is on record?
Answer: inactive: 6.75%

Question: Which Potency does the source give for `O=C(OCc1ccccc1)N1CCN(C(c2ccnc3ccccc23)c2nnnn2-c2ccc3c(c2)OCCO3)CC1` (centres undefined) here?
Answer: active: 23.1 µM

Question: For `CC1(C(=O)NCc2cccc(Cl)c2)Cc2c(-c3cccc(C(N)=O)c3)ccnc2O1` (centres undefined), which Potency is on record?
Answer: inconclusive: 29.1 µM [cytotoxic, single point]

Question: With `O=C1NC[C@@H](CCCCN2CCN(CCc3ccc(O)cc3)C(=O)C2=O)N(CCc2ccc(O)cc2)C1=O` as the compound, how does the “activity change, negative = cytotoxic” value read?
Answer: inactive: 18.5%

Question: With `COc1ccc(-c2nc(CSCC(=O)N3CCN(c4cccc(C)c4C)CC3)c(C)o2)cc1OC` as the compound, how does the Potency read?
Answer: inconclusive: 29.1 µM [cytotoxic, single point]

Question: With `C[C@H](CO)N1C[C@H](C)[C@@H](CN(C)C(=O)Nc2ccccc2)Oc2ccc(NC(=O)Nc3ccccc3)cc2C1=O` as the compound, how does the Potency read?
Answer: inconclusive: 3.26 µM [rising, partial curve]

Question: For `COc1ccc(C(=O)Nc2ccc3[nH]ccc3c2)cc1OC`, which Potency is on record?
Answer: inconclusive: 16.4 µM [cytotoxic, single point]

Question: Which Potency does the source give for `c1ccc(N=Nc2cn[nH]c2-c2ccco2)cc1` here?
Answer: inconclusive: 2.31 µM [rising, partial curve, poor fit]

Question: With `Cc1cc(C(=O)COC(=O)c2cnccn2)c(C)n1-c1ccc(Br)cc1` as the compound, how does the Potency read?
Answer: inconclusive: 29.1 µM [cytotoxic, single point]

Question: For `O=c1c(-c2ccccc2)nc2ccccc2n1C(CCc1ccccc1)c1nc2ccccc2[nH]1` (centres undefined), which Potency is on record?
Answer: inconclusive: 20.6 µM [cytotoxic, partial curve, poor fit]

Question: Which Potency does the source give for `CCOC(=O)c1cnc(SCC(=O)Nc2sc(C)c(C)c2C#N)nc1N` here?
Answer: inconclusive: 29.1 µM [cytotoxic, single point]

Question: For `CCOC(=O)/C(=C\c1cccnc1)C(=O)c1cc(C(C)=O)c(Nc2ccccc2)s1`, which Potency is on record?
Answer: active: 3.26 µM

Question: Which “activity change, negative = cytotoxic” value does the source give for `N#C/C(=C\c1ccccc1C(F)(F)F)C(=O)Nc1ccccc1` here?
Answer: inactive: -1.41%

Question: For `COc1cc(OC)c2ccc(=O)oc2c1C(CCN1CCN(c2ccccc2)CC1)c1ccc(N(C)C)cc1` (centres undefined), which “activity change, negative = cytotoxic” value is on record?
Answer: inactive: 7.76%

Question: Which Potency does the source give for `O=S(=O)(c1cccc(F)c1)N1CCN(c2nc(-c3cccnc3)nc3ccccc23)CC1` here?
Answer: inconclusive: 18.4 µM [cytotoxic, single point]

Question: For `CC1CCCCN1Cc1c(O)ccc2c(=O)c(-c3nc4ccccc4s3)coc12` (centres undefined), which Potency is on record?
Answer: inconclusive: 29.1 µM [cytotoxic, single point]

Question: Which Potency does the source give for `CCOC(=O)c1sc(NC(=O)c2cc(-c3ccccc3)nc3ccccc23)c(C#N)c1C` here?
Answer: active: 14.6 µM

Question: With `COc1ccc(-c2ccccc2)cc1NC(=O)[C@@H]1O[C@H](CO)[C@H](O)[C@H](O)[C@H]1O` as the compound, how does the “activity change, negative = cytotoxic” value read?
Answer: inactive: -0.0142%

Question: Which “activity change, negative = cytotoxic” value does the source give for `CSc1ccccc1NC(=O)CN(C)C(=O)COc1cccc2cccnc12` here?
Answer: inactive: 1.75%

Question: With `O=C(NNC(=O)C1CC=CCC1)c1ccccc1O` (centres undefined) as the compound, how does the Potency read?
Answer: inconclusive: 20.6 µM [cytotoxic, single point]

Question: Which Potency does the source give for `C(=N\NC(=Nc1ccccc1)c1ccccn1)/c1ccccn1` here?
Answer: inconclusive: 25.9 µM [cytotoxic, single point]

Question: Which Potency does the source give for `Fc1ccc(-n2cc(-c3ccccc3)c3c(NN4CCOCC4)ncnc32)cc1` here?
Answer: inconclusive: 23.1 µM [cytotoxic, single point]

Question: Which “activity change, negative = cytotoxic” value does the source give for `O=C(c1cccn1-c1nnc(N2CCCC2)s1)N1CCN(c2ccccc2)CC1` here?
Answer: inactive: 1.99%

Question: For `COc1ccc(CNC(=O)[C@H](C)NC(=O)N2CCn3c2nc2ccccc23)cc1`, which “activity change, negative = cytotoxic” value is on record?
Answer: inactive: 2.17%

Question: Which Potency does the source give for `Cc1cc(Nc2nnnn2-c2ccccc2)n(-c2ccccc2)n1` here?
Answer: inconclusive: 23.1 µM [cytotoxic, single point]

Question: Which Potency does the source give for `CCCCC/C(=N\NC(=O)Nc1ccccc1)c1ccccc1` here?
Answer: inconclusive: 29.1 µM [cytotoxic, single point]

Question: For `CC12CC(NC(=O)N1c1cccc(C(=O)NCc3ccc4c(c3)OCO4)c1)c1cc(Cl)ccc1O2` (centres undefined), which Potency is on record?
Answer: inconclusive: 29.1 µM [cytotoxic, single point]

Question: For `Cc1ccccc1-c1nc(SCC(=O)NCc2ccco2)c2c(=O)n(C)c(=O)n(C)c2n1`, which Potency is on record?
Answer: inconclusive: 14.6 µM [rising, single point]

Question: Which Potency does the source give for `C=CCNC(=O)c1cc(-c2ccc3c(c2)OCO3)on1` here?
Answer: inconclusive: 14.6 µM [cytotoxic, partial curve, poor fit]

Question: With `Cc1ccccc1/C=N/Nc1ccnc2cc(Cl)ccc12` as the compound, how does the Potency read?
Answer: inconclusive: 29.1 µM [cytotoxic, single point]

Question: Which Potency does the source give for `COCCCNC(=O)CN(CCc1ccccc1)S(=O)(=O)c1ccc(C)cc1` here?
Answer: inconclusive: 29.1 µM [rising, single point]

Question: For `Cc1[nH]c2ccccc2c1C(=O)CSC(=S)N(C)C1CCCCC1`, which “activity change, negative = cytotoxic” value is on record?
Answer: inactive: 13.7%

Question: With `CC(=O)c1cn(-c2ccc(Cl)cc2)c(=O)n(Cc2ccc(Br)cc2)c1=O` as the compound, how does the Potency read?
Answer: inconclusive: 5.8 µM [rising, partial curve]

Question: With `CCN(C(=N)N=C(N)N)c1ccccc1` as the compound, how does the “activity change, negative = cytotoxic” value read?
Answer: inactive: -2.85%

Question: Which “activity change, negative = cytotoxic” value does the source give for `CC1=C(C(=O)N(C)C)CC(CC(=O)NC(c2ccccc2)c2ccccc2)C(=O)N1Cc1ccc(F)cc1` (centres undefined) here?
Answer: inactive: 5.09%

Question: Which Potency does the source give for `Cc1ccc(S(=O)(=O)N(C)C)cc1NC(=O)COC(=O)CNC(=O)c1cccs1` here?
Answer: inconclusive: 29.1 µM [rising, single point]

Question: Which Potency does the source give for `NC(=O)c1sc2nc3c(c(-c4ccc(Cl)cc4)c2c1N)CCCC3` here?
Answer: inconclusive: 29.1 µM [cytotoxic, single point]

Question: Which Potency does the source give for `CC[C@]1(O)CC2CN(CCc3c([nH]c4ccccc34)[C@@](C(=O)OC)(c3cc4c(cc3OC)N(C=O)[C@H]3[C@@](O)(C(=O)OC)[C@H](OC(C)=O)[C@]5(CC)C=CCN6CC[C@]43[C@@H]65)C2)C1` (some centres undefined) here?
Answer: inconclusive: 0.0073 µM [cytotoxic, full curve, poor fit]

Question: With `CCOC(=O)c1cc2c(=O)n3ccccc3nc2n(Cc2ccc(Cl)cc2)c1=N` as the compound, how does the “activity change, negative = cytotoxic” value read?
Answer: inactive: 12.1%

Question: Which “activity change, negative = cytotoxic” value does the source give for `O=S(=O)(Cc1ccc(Cl)cc1)c1ncc(CO)n1Cc1ccccc1` here?
Answer: inactive: -5.28%

Question: With `COc1cccc(-c2nc(NCC3CCCO3)c3ccccc3n2)c1O` (centres undefined) as the compound, how does the Potency read?
Answer: inconclusive: 20.6 µM [cytotoxic, single point]

Question: For `CCOC(=O)[C@]12CCCC=C1N(Cc1ccc3c(c1)OCO3)C(=O)[C@H](CC(=O)N1CCC(c3ccccc3)CC1)C2`, which Potency is on record?
Answer: inconclusive: 29.1 µM [cytotoxic, single point]

Question: For `Cc1ccc(S(=O)(=O)N2CCCCC2)cc1NC(=O)COC(=O)CNC(=O)c1cc(Cl)cc([N+](=O)[O-])c1`, which “activity change, negative = cytotoxic” value is on record?
Answer: inactive: 5.7%

Question: For `O=S(Cc1ccc(Br)cc1)Cc1nnc(SCc2c(F)cccc2Cl)n1-c1ccccc1` (centres undefined), which Potency is on record?
Answer: inconclusive: 29.1 µM [cytotoxic, single point]

Question: With `CCCCN(C=O)c1c(CC)nc2c(OCc3cc(Cl)cc(Cl)c3)cccn12` as the compound, how does the Potency read?
Answer: inconclusive: 29.1 µM [cytotoxic, single point]

Question: Which Potency does the source give for `CCCc1c(NC(=O)Nc2ccc(F)cc2)cnn1-c1ccc(Cl)cc1` here?
Answer: active: 9.2 µM

Question: With `COc1ccc(C=CC(=O)c2ccc(OC)c(OC)c2)cc1O` as the compound, how does the Potency read?
Answer: inconclusive: 6.51 µM [cytotoxic, full curve]

Question: For `COc1cc(CCC(=O)N2CCN(c3ncccn3)CC2)cc(OC)c1OC`, which “activity change, negative = cytotoxic” value is on record?
Answer: inactive: 6.67%

Question: With `CN(C)C(=O)c1cccc(-c2cccc(-c3nc(C(=O)NCc4ccccc4)cc4c3[C@@H](CCO)N(S(=O)C(C)(C)C)C4)c2)c1` (some centres undefined) as the compound, how does the Potency read?
Answer: inconclusive: 29.1 µM [cytotoxic, single point]

Question: For `Cc1cccc(-n2c(C)cc(/C=C3\C(=N)N4N=C(CC(C)C)SC4=NC3=O)c2C)c1`, which “activity change, negative = cytotoxic” value is on record?
Answer: inactive: 18.2%

Question: Which Potency does the source give for `CCCCCCCCN1C(=O)[C@H](CC(=O)NCCCOC)C[C@@]2(C(=O)OCC)CCCC=C12` here?
Answer: inconclusive: 20.6 µM [cytotoxic, single point]

Question: With `CC(=O)N1CCN(c2nc(CC(C)C)c3c(c2C#N)CCC3)CC1` as the compound, how does the “activity change, negative = cytotoxic” value read?
Answer: inactive: 0.774%

Question: Which “activity change, negative = cytotoxic” value does the source give for `CCOC(=O)C1=C(COC(=O)/C=C/c2ccc(OCC)c(OC)c2)NC(=O)NC1C` (centres undefined) here?
Answer: inactive: 0%

Question: With `Cc1cccc(NC2=C(NCCO)C(=O)c3ccccc3C2=O)c1` as the compound, how does the Potency read?
Answer: inconclusive: 29.1 µM [cytotoxic, single point]

Question: For `CN1C(=O)N(C)c2ccc(C=O)c3cccc1c23`, which Potency is on record?
Answer: inconclusive: 9.2 µM [cytotoxic, partial curve]

Question: For `Cc1ccc(C(=O)NC(=S)NNC(=O)COc2ccccc2C)cc1`, which Potency is on record?
Answer: inconclusive: 29.1 µM [cytotoxic, single point]

Question: For `CCCCCCNC(=O)O[C@H]1CN(C(=O)OC(C)C)N(C(=O)OC(C)C)[C@@H]2CN(S(=O)(=O)c3ccc(C)cc3)C[C@]12O`, which Potency is on record?
Answer: inconclusive: 29.1 µM [cytotoxic, single point]

Question: Which “activity change, negative = cytotoxic” value does the source give for `CCOc1ccc(C(=O)NC(=S)Nc2cc(C)ccn2)cc1[N+](=O)[O-]` here?
Answer: inactive: -17.8%
